Measured values from US9840623B2, “Detoxification method for obtaining a zinc containing pigment compound with no ecotoxicity” (Societe Nouvelle Des Couleurs Zinciques, priority 2009, dated 2017).

Assay: Anti-corrosion test in solvent-phase epoxy amine primer, salt fog ASTM B117
Conditions: salt fog 600 hours

Zn3(PO4)2.0 to 4H2O [PZ]
Degree of rusting NF-ISO 4828-3 T 30140-3 (epoxy amine primer 50 μm, polyurethane topcoat 100 μm): RI1
Complete plate general rating ASTM* 1654 (epoxy amine primer, 10 = 0% degradation, 0 = more than 75% degradation): 6
Scribe corrosion ASTM* 1654 (epoxy amine primer, 10 = 0 mm at scribe, 0 = 16 mm and more): 6
